PubChem BioAssay AID1224830 | NIAID – 2016

Purpose: 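Genes whose knock-down alters the TNF-alpha reporter response to LPS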 (primary screen)
System: human THP-1 monocytic leukaemia cells, TNF dual-luciferase reporter clone, PMA-differentiated to macrophage-like cells
Reagent: siRNA pool against human genes, 50 nM
Timing: LPS for 4 h, given about 3 days after siRNA transfection
Challenge: bacterial LPS (TLR4 ligand), 10 ng/ml
Detection: 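TNF firefly reporter luminescence divided by renilla, normalised to the plate median, then turned into a robust z-score for each replicate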
Scale: TNF reporter robust z-score: higher = stronger TNF reporter response to LPS
Call rule: 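Each well counts as active if its z-score is over 2.8 or under -1.5; controls are left without a call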
Shown is an unselected part of about 18,000 reagents. Over the whole deposit, about 2,900 (16%) got an active call. 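Calls are made per well; low scores hint the gene aids the LPS response, high scores that it dampens it.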 Entries without a mark were called inactive. Repeated entries: four replicate wells of each siRNA pool.

Gene | TNF reporter robust z-score
KIAA1143 (GeneID 57456) | -0.11
KIAA1143 (GeneID 57456) | 0.11
KIAA1143 (GeneID 57456) | 2.02
KIAA1143 (GeneID 57456) | -0.53
CLPS (GeneID 1208) | 0.28
CLPS (GeneID 1208) | -0.61
CLPS (GeneID 1208) | -1.58 (active)
CLPS (GeneID 1208) | -1.72 (active)
TYW5 (GeneID 129450) | 0.21
TYW5 (GeneID 129450) | 0.87
TYW5 (GeneID 129450) | 0.76
TYW5 (GeneID 129450) | 1.49
SPATA45 (GeneID 149643) | -0.57
SPATA45 (GeneID 149643) | -0.71
SPATA45 (GeneID 149643) | -0.62
FNDC3A (GeneID 22862) | -0.21
FNDC3A (GeneID 22862) | -1.16
FNDC3A (GeneID 22862) | -1.21
FNDC3A (GeneID 22862) | -1.22
FNDC3A (GeneID 22862) | 0.5
FNDC3A (GeneID 22862) | 1.55
FNDC3A (GeneID 22862) | 1.41
FNDC3A (GeneID 22862) | 0.92
SP100 (GeneID 6672) | -1.36
SP100 (GeneID 6672) | -0.27
SP100 (GeneID 6672) | 0.66
SP100 (GeneID 6672) | -0.93
CCL28 (GeneID 56477) | -1.07
CCL28 (GeneID 56477) | 0.13
CCL28 (GeneID 56477) | -0.64
CCL28 (GeneID 56477) | -0.05
ELMO2 (GeneID 63916) | 0.43
ELMO2 (GeneID 63916) | 2.08
ELMO2 (GeneID 63916) | 1.97
ELMO2 (GeneID 63916) | 2.09
ANK1 (GeneID 286) | -0.05
ANK1 (GeneID 286) | 1.78
ANK1 (GeneID 286) | -1.03
ANK1 (GeneID 286) | -0.84
RASD2 (GeneID 23551) | 0.79
RASD2 (GeneID 23551) | 1.3
RASD2 (GeneID 23551) | 1.29
RASD2 (GeneID 23551) | 0.96
VPS9D1 (GeneID 9605) | 1.15
VPS9D1 (GeneID 9605) | 0.46
VPS9D1 (GeneID 9605) | 0.52
ACOT1 (GeneID 641371) | 1.08
ACOT1 (GeneID 641371) | 1.09
ACOT1 (GeneID 641371) | 0.89
ACOT1 (GeneID 641371) | 1.81

Laid out differently: results already given.
| Gene | TNF reporter robust z-score |
| --- | --- |
| SPATA45 (GeneID 149643) | -0.62 |
| FNDC3A (GeneID 22862) | -0.21 |
| FNDC3A (GeneID 22862) | -1.16 |
| FNDC3A (GeneID 22862) | -1.21 |

The results go on.
Gene | TNF reporter robust z-score
ARSH (GeneID 347527) | 1.95
ARSH (GeneID 347527) | 0.9
ARSH (GeneID 347527) | 1.69
ARSH (GeneID 347527) | 1.93
SLC44A3 (GeneID 126969) | 0.4
SLC44A3 (GeneID 126969) | 0.92
SLC44A3 (GeneID 126969) | 0.23
SLC44A3 (GeneID 126969) | 0.29
TRIM46 (GeneID 80128) | 0.79
TRIM46 (GeneID 80128) | 3.2 (active)
TRIM46 (GeneID 80128) | -1.74 (active)
FRMD5 (GeneID 84978) | -1.38
FRMD5 (GeneID 84978) | -0.76
FRMD5 (GeneID 84978) | -0.79
FRMD5 (GeneID 84978) | -1.53 (active)
IFNA10 (GeneID 3446) | 1.93
IFNA10 (GeneID 3446) | 0.92
IFNA10 (GeneID 3446) | 0.42
IFNA10 (GeneID 3446) | 0.16
CRISP3 (GeneID 10321) | -0.87
CRISP3 (GeneID 10321) | -0.44
CRISP3 (GeneID 10321) | -0.71
CRISP3 (GeneID 10321) | -0.34
DUX4L1 (GeneID 22947) | 0.91
DUX4L1 (GeneID 22947) | 0.65
DUX4L1 (GeneID 22947) | -0.26
DUX4L1 (GeneID 22947) | -0.44
